{"source": "patent US20230399361A1", "about": "(UNIVERSITY OF NOTRE DAME DU LAC, priority 2022, published 2023)", "note": "[ ]: non-standard residue; d: D form. aIle = CC[C@@H](C)[C@H](N)C(=O)O", "data": [{"assay": "general procedure: Fmoc solid-phase peptide synthesis; Fmoc-capped polystyrene Rink amide MBHA resin (100-200 mesh); HCTU/NMM", "conditions": "whole synthesis, scale of the general procedure 0.05-0.15 mmol", "units": {"isolated yield": "%"}, "values": [{"substance": "Ac-Val-Gln-Ile-Val-aTyr-Lys-NH2", "isolated yield": 38}, {"substance": "Ac-Val-Gln-aIle-Val-aTyr-Lys-NH2", "isolated yield": 44}, {"substance": "Ac-Val-Gln-Ile-Val-Tyr-aLys-NH2", "isolated yield": 99}, {"substance": "Ac-aVal-Gln-aIle-Val-aTyr-Lys-NH2", "isolated yield": 28}, {"substance": "Ac-VQI[aIle]NK-NH2", "isolated yield": 75}, {"substance": "Ac-aVal-Gln-Ile-Val-aTyr-Lys-NH2", "isolated yield": 58}, {"substance": "Ac-Val-Gln-Ile-aVal-Tyr-aLys-NH2", "isolated yield": 42}, {"substance": "Ac-aVal-Gln-aIle-Val-Tyr-Lys-NH2", "isolated yield": 52}, {"substance": "Ac-aVal-Gln-Ile-Ile-Asn-Lys-NH2", "isolated yield": 81}, {"substance": "Ac-Val-Gln-Ile-aVal-Tyr-Lys-NH2", "isolated yield": 88}]}]}
